{"source": "PubChem BioAssay AID504834", "about": "(National Center for Advancing Translational Sciences (NCATS), 2011)", "note": "The campaign covered roughly 320,000 compounds. About 22,000 (6.9%) were called active. The inconclusive results got no clear call from the source; some entries with a clear call stand among them for comparison. Calls come from the whole dose curve; as a rule, active = well fitted inhibition curve with a large enough effect; inconclusive = small, poorly fitted or top-dose-only effect, or another doubt; inactive = no such curve, though single readings can be large or run the other way. Where the call is inconclusive, the potency comes from a doubtful curve fit. Potency is the fitted concentration of half-maximal effect.", "data": [{"assay": "Primary qHTS for delayed death inhibitors of the malarial parasite plastid, 96 hour incubation", "settings": "P. falciparum luciferase reporter growth; series mostly up to 28.7 µM", "how_it_was_run": "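Erythrocytes infected with luciferase-expressing P. falciparum were dispensed at 2% hematocrit and 0.05% parasitemia (final), then incubated with compounds 96 hours at 37 C in 5% CO2. Luminescence after detection reagent addition reported growth.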", "values": [{"smiles": "COc1ccc(NC(=O)CSc2nnc(NC(=O)c3ccccc3C(=O)O)s2)cc1", "Potency": "inconclusive: 18.5 µM [inhibitor, single point]"}, {"smiles": "COc1ccc2c(c1OC)C(=O)N1C2SC[C@H]1C(=O)NC1CCCCC1", "note": "(some centres not stated)", "Potency": "inactive"}, {"smiles": "Cc1cc(C(F)F)n2nc(C(=O)Nc3cccc(S(=O)(=O)N4CCOCC4)c3)nc2n1", "Potency": "inactive"}, {"smiles": "Cc1nc(/C(N)=N/OC(=O)Cc2ccccc2)no1", "Potency": "inconclusive: 1.04 µM [inhibitor, partial curve, poor fit]"}, {"smiles": "N#CC1(c2ccccc2)CCC(NCCc2ccccc2)CC1", "note": "(configuration not stated)", "Potency": "inconclusive: 18.5 µM [inhibitor, single point]"}, {"smiles": "Cc1ccn2c(NCc3ccc4c(c3)OCO4)c(-c3ccc(O)cc3)nc2c1", "Potency": "inconclusive: 6.57 µM [inhibitor, partial curve, poor fit]"}, {"smiles": "CC1Cc2ccccc2N1c1nc(C2CC2)nc2c1nnn2Cc1ccccc1", "note": "(configuration not stated)", "Potency": "inactive"}, {"smiles": "CCCOc1ccc(/C=C/C(=O)NC2CCCCC2)cc1", "Potency": "inactive"}, {"smiles": "CCOc1ccc(C(=O)Nc2ccc(NC(=O)c3ccccc3)c(C)c2)cc1[N+](=O)[O-]", "Potency": "active: 0.208 µM"}, {"smiles": "C=CCN(C(=O)c1cccc(S(=O)(=O)N2CCN(C)CC2)c1)c1nc(-c2ccccc2)cs1", "Potency": "inconclusive: 0.329 µM [inhibitor, full curve, poor fit]"}, {"smiles": "OC[C@@H](O)C(O[C@@H]1O[C@@H](CO)[C@H](O)[C@H](O)[C@H]1O)[C@H](O)[C@@H](O)CO", "note": "(some centres not stated)", "Potency": "inconclusive: 2.39 µM [inhibitor, partial curve, poor fit]"}, {"smiles": "O=C(Nc1ccc(-c2cscn2)cc1)C1CCCN(Cc2ccc(CO)o2)C1", "note": "(configuration not stated)", "Potency": "inactive"}, {"smiles": "COC(=O)[C@]1(C)C[C@H]1[C@H](NP(=O)(c1ccccc1)c1ccccc1)c1ccccc1", "Potency": "inconclusive: 16.5 µM [inhibitor, partial curve, poor fit]"}, {"smiles": "O=C(COC(=O)C1CCC(N2C(=O)C3C4CCC(C4)C3C2=O)CC1)c1ccc(F)cc1", "note": "(configuration not stated)", "Potency": "inconclusive: 0.0026 µM [inhibitor, full curve, poor fit]"}, {"smiles": "COc1ccc(CCCc2nc3ccccc3[nH]2)cc1", "Potency": "inconclusive: 13.1 µM [inhibitor, single point]"}, {"smiles": "COc1ccc(CCNc2cc(C)nc(N)n2)cc1OC", "Potency": "inconclusive: 18.5 µM [inhibitor, single point]"}, {"smiles": "CCOC(=O)c1c(C)c(C(=O)Nc2ccccc2)c(C)n1CC", "Potency": "active: 4.65 µM"}, {"smiles": "O=C(N/C(=C/c1ccccc1)C(=O)N1CCCCC1)c1ccc(Br)o1", "Potency": "inactive"}, {"smiles": "O=C(Cc1ccc(Cl)c(Cl)c1)Nc1cccc(S(=O)(=O)N2CCOCC2)c1", "Potency": "inconclusive: 13.1 µM [inhibitor, single point]"}, {"smiles": "Cc1cc2c(c(=O)n1Cc1ccccc1)C1O[C@](CCCCN3C(=O)c4ccccc4C3=O)(Cc3ccccc31)O2", "Potency": "inconclusive: 3.38 µM [inhibitor, single point]"}, {"smiles": "COc1ccccc1N1C(=O)C=C(Sc2nc(C)cc(C)n2)C1=O", "Potency": "inconclusive: 9.28 µM [inhibitor, single point]"}, {"smiles": "Cn1c(=O)oc2cc(S(=O)(=O)N3CCN(c4ccccc4F)CC3)ccc21", "Potency": "inconclusive: 0.522 µM [inhibitor, partial curve]"}, {"smiles": "Nc1nc(-c2ccccn2)nc(N)c1Cc1c(F)cccc1Cl", "Potency": "inconclusive: 2.94 µM [inhibitor, partial curve, poor fit]"}, {"smiles": "O=C(NCCC1CCCC1)C1CCC(=O)N(CCCN2CCCC2=O)C1", "note": "(configuration not stated)", "Potency": "inconclusive: 14.7 µM [inhibitor, single point]"}, {"smiles": "CCCC[C@H](O)c1ccccc1", "Potency": "inconclusive: 10.4 µM [inhibitor, single point]"}, {"smiles": "COc1ccc(OC)c(C2C3=C(CCCC3=O)Nc3nnnn32)c1", "note": "(configuration not stated)", "Potency": "inactive"}, {"smiles": "CCOc1ccccc1NC(=O)c1c(Br)cnn1C", "Potency": "inactive"}, {"smiles": "O=C(/C=C/c1ccccc1)N/C(=C/c1ccccc1)C(=O)NCCO", "Potency": "inconclusive: 3.29 µM [inhibitor, single point]"}, {"smiles": "O=c1c2ccccc2ncn1Cc1ccc2c(c1)OCO2", "Potency": "inconclusive: 18.5 µM [inhibitor, single point]"}, {"smiles": "Cc1[nH]c2ccc3ncccc3c2c1C", "Potency": "inconclusive: 0.465 µM [inhibitor, full curve, poor fit]"}, {"smiles": "Nc1c(C(=O)Nc2ccc3c(c2)OCCO3)nnn1CCc1ccccc1", "Potency": "inactive"}, {"smiles": "CC(=O)c1nn(-c2cccc(Br)c2)cc1C(=O)c1ccccc1", "Potency": "inconclusive: 5.22 µM [inhibitor, partial curve, poor fit]"}, {"smiles": "Nc1ccc(-c2nnc(-c3ccccc3)o2)cc1", "Potency": "inconclusive: 18.5 µM [inhibitor, single point]"}, {"smiles": "Cc1noc(NS(=O)(=O)c2ccc(NC(=O)C(Cl)(Cl)Cl)cc2)c1C", "Potency": "inconclusive: 14.7 µM [inhibitor, single point]"}, {"smiles": "O=S(=O)(O)CC(S)CS", "note": "(configuration not stated)", "Potency": "inactive"}, {"smiles": "CC1CCc2sc(C(=O)OCC(=O)NC(N)=O)cc2C1", "note": "(configuration not stated)", "Potency": "inactive"}, {"smiles": "Cc1cc(N)n(-c2nc(-c3cccnc3)nc3ccccc23)n1", "Potency": "inactive"}, {"smiles": "CCCn1c(=O)c2c(C(F)(F)F)cc(-c3cccs3)nc2n(CCC)c1=O", "Potency": "inactive"}, {"smiles": "CCN(CC)S(=O)(=O)c1ccc2c(c1)c(=O)c(C(=O)NCc1cccs1)cn2C", "Potency": "inconclusive: 0.0029 µM [inhibitor, full curve, poor fit]"}, {"smiles": "CN1CCC(OC(=O)c2ccccc2)CC1", "Potency": "inactive"}, {"smiles": "NC(=O)CC(NC(=O)c1ccccc1)c1ccc(N2CCCCCC2)c([N+](=O)[O-])c1", "note": "(configuration not stated)", "Potency": "inactive"}, {"smiles": "O=C(CS(=O)c1ccc(C(F)(F)F)cc1[N+](=O)[O-])Oc1ccc(Cl)cc1", "note": "(configuration not stated)", "Potency": "inconclusive: 7.38 µM [inhibitor, partial curve, poor fit]"}, {"smiles": "CC(=O)c1ccc(O)c(CC=C(C)C)c1", "Potency": "inactive"}, {"smiles": "CC1Cc2ccccc2N1C(=O)CSc1nc2c(c(=O)n(C)c(=O)n2C)n1Cc1ccccc1", "note": "(configuration not stated)", "Potency": "inactive"}, {"smiles": "CCOc1ccccc1/C=N/Nc1nc(C)cc(=O)[nH]1", "Potency": "inactive"}, {"smiles": "O=C1c2ccccc2C(=O)N1CC1=NCCc2ccccc21", "Potency": "inactive"}, {"smiles": "CNC(=O)C(=O)Nc1nc(C23CC4CC(CC(C4)C2)C3)cs1", "Potency": "inconclusive: 13.1 µM [inhibitor, partial curve, poor fit]"}]}]}
